The assay deals with ヒトTFPI (human tissue factor pathway inhibitor; American Diagnostica) (human) (UniProt P10646). Put plainly: ELISA, Fab in bacterial lysate on coated human TFPI.

Amino acid sequences for entries named in this document (tags omitted). Residues count along the entry.
UniProt P10646, residues 29-304: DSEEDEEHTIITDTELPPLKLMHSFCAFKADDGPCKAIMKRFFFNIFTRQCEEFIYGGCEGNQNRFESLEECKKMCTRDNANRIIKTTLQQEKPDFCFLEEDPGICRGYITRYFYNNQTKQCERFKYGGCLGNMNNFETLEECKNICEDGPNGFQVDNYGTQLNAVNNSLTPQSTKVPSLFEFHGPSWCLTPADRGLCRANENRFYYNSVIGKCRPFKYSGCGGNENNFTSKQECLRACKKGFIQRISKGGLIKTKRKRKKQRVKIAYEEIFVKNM

Results are given in words; binding and its absence hold for the method and conditions named. Some entries that bind do so weakly or less than the wild type.

B1: TP-4E8 (Fab, V domains shown)
VH: QVQLVESGGGLVQPGGSLRLSCAASGFTFNDYAMSWVRQAPGKGLEWVSLIESVSSSTYYADSVKGRFTISRDNSKNTLYLQMNSLRAEDTAVYYCARTIGVLWDDVWGQGTLVTVSS
VL: DIELTQPPSVSVAPGQTARISCSGDALGSKYVSWYQQKPGQAPVLVIYGDNKRPSGIPERFSGSNSGNTATLTISGTQAEDEADYYCQSYTYSLNQVFGGGTKLTVLG
With B1, the binding entry is “binds”.

B2: TP-2A6 (Fab, V domains shown)
VH: QVQLVESGGGLVQPGGSLRLSCAASGFTFSRYAMSWVRQAPGKGLEWVSSIISSSSETYYADSVKGRFTISRDNSKNTLYLQMNSLRAEDTAVYYCARLMGYGHYYPFDYWGQGTLVTVSS
VL: DIELTQPPSVSVAPGQTARISCSGDKIGSKYVYWYQQKPGQAPVLVIYDSNRPSGIPERFSGSNSGNTATLTISGTQAEDEADYYCASYDSIYSYWVFGGGTKLTVLG
In the case of B2, the binding result is “binds”.

B3: TP-3F1 (Fab, V domains shown)
VH: QVQLVQSGAEVKKPGESLKISCKGSGYSFTDYWIGWVRQMPGKGLEWMGIIQPSDSDTNYSPSFQGQVTISADKSISTAYLQWSSLKASDTAMYYCARFMWWGKYDSGFDVWGQGTLVTVSS
VL: DIELTQPPSVSVAPGQTARISCSGDNIGSYFASWYQQKPGQAPVLVIYDDSNRPSGIPERFSGSNSGNTATLTISGTQAEDEADYYCEGSNVFGGGTKLTVLG
B3: the binding entry is “binds”.

B4: TP-4A9 (Fab, V domains shown)
VH: QVQLVESGGGLVQPGGSLRLSCAASGFTFSSYGMSWVRQAPGKGLEWVSLISGVSSSTYYADSVKGRFTISRDNSKNTLYLQMNSLRAEDTAVYYCARSYLGYFDVWGQGTLVTVSS
VL: DIELTQPPSVSVAPGQTARISCSGDALGKYYASWYQQKPGQAPVLVIYGDNKRPSGIPERFSGSNSGNTATLTISGTQAEDEADYYCQSYTTRSLVFGGGTKLTVLG
Regarding B4, the binding result is reported as “binds”.

B5: TP-2G6 (Fab, V domains shown)
VH: QVQLQQSGPGLVKPSQTLSLTCAISGDSVSSSSAAWSWIRQSPGRGLEWLGIIYYRSKWYNDYAVSVKSRITINPDTSKNQFSLQLNSVTPEDTAVYYCARHSMVGFDVWGQGTLVTVSS
VL: DIVLTQSPATLSLSPGERATLSCRASQYVTSSYLAWYQQKPGQAPRLLIYGSSRATGVPARFSGSGSGTDFTLTISSLEPEDFATYYCQQYSSSPITFGQGTKVEIKR
For B5, the binding entry was “binds”.

B6: TP-3D3 (Fab, V domains shown)
VH: QVQLVESGGGLVQPGGSLRLSCAASGFTFSSYASWVRQAPGKGLEWVSGISGDGSNTHYADSVKGRFTISRDNSKNTLYLQMNSLRAEDTAVYYCARYDNFYFDVWGQGTLVTVSS
VL: DIELTQPPSVSVAPGQTARISCSGDSLGSKFAHWYQQKPGQAPVLVIYDDSNRPSGIPERFSGSNSGNTATLTISGTQAEDEADYYCSTYTSRSHSYVFGGGTKLTVLG
As for B6, the binding result is recorded as “binds”.

B7: TP-4H8 (Fab, V domains shown)
VH: QVQLVESGGGLVQPGGSLRLSCAASGFTFSDHAMHWVRQAPGKGLEWVSVIEYSGSKTNYADSVKGRFTISRDNSKNTLYLQMNSLRAEDTAVYYCARGDYYPYLVFAIWGQGTLVTVSS
VL: DIELTQPPSVSVAPGQTARISCSGDSIGKKYVHWYQQKPGQAPVLVIYGDNNRPSGIPERFSGSNSGNTATLTISGTQAEDEADYYCSTADSVITYKNVFGGGTKLTVLG
For the molecule B7, the binding result is recorded as “binds”.

B8: TP-2A5.1 (Fab, V domains shown)
VH: QVQLVESGGGLVQPGGSLRLSCAASGFTFSSYGSWVRQAPGKGLEWVSVISGSGSSTYYADSVKGRFTISRDNSKNTLYLQMNSLRAEDTAVYYCARVNISTHFDVWGQGTLVTVSS
VL: DIELTQPPSVSVAPGQTARISCSGDNIPEKYVHWYQQKPGQAPVLVIHGDNNRPSGIPERFSGSNSGNTATLTISGTQAEDEADYYCQSFDAGSYFVFGGGTKLTVLG
For the molecule B8, the binding result is “binds”.

B9: TP-4G8 (Fab, V domains shown)
VH: QVQLVESGGGLVQPGGSLRLSCAASGFTFSTYAMHWVRQAPGKGLEWVSTISGYGSFTYYADSVKGRFTISRDNSKNTLYLQMNSLRAEDTAVYYCARNGRKYGQMDNWGQGTLVTVSS
VL: DIELTQPPSVSVAPGQTARISCSGDKLGSKSVHWYQQKPGQAPVLVIYRDTDRPSGIPERFSGSNSGNTATLTISGTQAEDEADYYCQTYDYILNVFGGGTKLTVLG
Take B9: the binding result is “binds”.

The values above are taken from patent publication JP2017222678A.
